Source: publication doi:10.1101/382564
Read-outs that look alike come from different tables or passages of the source. Results are given in words; binding and its absence hold for the method and conditions named. In cells and extracts the contact can be indirect. Some entries that bind do so weakly or less than the wild type. Where a sequence is shown, tags or fusion partners need not be part of it.

Key:
Experiment in all cases: co-IP
Pol1-Flag (S. pombe) [1] = molecular target: T1, Pol1-Flag (S. pombe) (UniProt P28040)
T1 sequence: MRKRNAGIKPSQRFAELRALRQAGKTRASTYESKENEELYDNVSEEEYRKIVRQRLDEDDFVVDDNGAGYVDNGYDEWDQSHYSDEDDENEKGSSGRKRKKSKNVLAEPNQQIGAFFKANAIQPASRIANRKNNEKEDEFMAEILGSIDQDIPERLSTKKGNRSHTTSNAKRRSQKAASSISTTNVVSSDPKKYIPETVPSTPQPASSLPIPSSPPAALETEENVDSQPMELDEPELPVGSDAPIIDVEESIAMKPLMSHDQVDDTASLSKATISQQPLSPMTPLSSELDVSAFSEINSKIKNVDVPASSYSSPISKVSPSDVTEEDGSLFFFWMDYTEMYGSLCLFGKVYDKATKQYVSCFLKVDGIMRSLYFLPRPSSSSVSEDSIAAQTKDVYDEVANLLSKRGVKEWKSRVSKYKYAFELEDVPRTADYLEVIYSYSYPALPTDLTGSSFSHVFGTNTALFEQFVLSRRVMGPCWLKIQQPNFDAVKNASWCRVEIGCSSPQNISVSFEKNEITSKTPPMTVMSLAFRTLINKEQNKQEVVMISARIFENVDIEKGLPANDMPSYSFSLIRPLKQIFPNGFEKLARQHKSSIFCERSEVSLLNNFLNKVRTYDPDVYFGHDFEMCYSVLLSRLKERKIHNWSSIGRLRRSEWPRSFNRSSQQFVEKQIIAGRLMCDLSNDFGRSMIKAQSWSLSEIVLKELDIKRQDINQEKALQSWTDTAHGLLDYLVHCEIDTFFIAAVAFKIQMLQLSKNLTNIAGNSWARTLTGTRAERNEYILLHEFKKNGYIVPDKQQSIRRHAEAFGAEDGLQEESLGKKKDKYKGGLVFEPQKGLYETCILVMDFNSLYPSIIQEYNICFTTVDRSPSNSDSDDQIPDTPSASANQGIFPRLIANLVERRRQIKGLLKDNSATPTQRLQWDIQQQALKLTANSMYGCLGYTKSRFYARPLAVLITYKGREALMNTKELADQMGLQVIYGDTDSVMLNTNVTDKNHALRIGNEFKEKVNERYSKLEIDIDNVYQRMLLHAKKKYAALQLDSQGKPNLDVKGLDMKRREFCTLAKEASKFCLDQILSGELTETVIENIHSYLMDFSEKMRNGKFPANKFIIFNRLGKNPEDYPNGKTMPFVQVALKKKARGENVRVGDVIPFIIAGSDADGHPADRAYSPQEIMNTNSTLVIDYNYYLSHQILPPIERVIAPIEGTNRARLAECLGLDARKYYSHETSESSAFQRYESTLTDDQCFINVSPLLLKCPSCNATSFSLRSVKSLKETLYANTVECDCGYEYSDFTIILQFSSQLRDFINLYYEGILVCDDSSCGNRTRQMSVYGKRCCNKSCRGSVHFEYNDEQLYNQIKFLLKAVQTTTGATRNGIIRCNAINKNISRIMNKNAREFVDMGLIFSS

Pol1-Flag (S. pombe) [2] = molecular target: T1, Pol1-Flag (S. pombe); remark: listed apart in the source
Ten1-Flag (S. pombe) = molecular target: T2, Ten1-Flag (S. pombe) (UniProt P0C5Y7)
T2 sequence: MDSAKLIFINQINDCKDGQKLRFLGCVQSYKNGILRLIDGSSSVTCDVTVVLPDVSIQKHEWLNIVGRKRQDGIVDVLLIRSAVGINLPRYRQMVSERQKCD

binding (Pol1-Flag (S. pombe) [1]): no binding (condition: in ssu72Δ cells)
binding (Pol1-Flag (S. pombe) [2]): binds
binding (Ten1-Flag (S. pombe)): binds
B1: Stn1-Myc (protein, UniProt Q0E7J7 1-325)
chain: MLENENQLTHQFPTLSRWNPMFISDVHKISFHPHLQRYIGFWMGFPIRWIQIVGYIAAIDIYEGKHVLTVDDCSGMVLRVVFIIQDDFSMSKRAISMSPGNVVCVFGKINSFRSEVELIAQSFEELRDPNDEWKAWQKRMRYKKNLTKISKNHHSIIRTPKKSYFPKDHAKELLKCIRQMCKLNVQAGFTIEELIIYLKAKELHLPLVHIFNVENEIVENCDGNHILALNFSLQTLLQHGRIVRKSNSVYMLVTSKDIIRFVIPLMASGLLEAHKVQSIVRDSNPMFITLPLSAIAKHICQFLLRTKGKWRQAKKYTWVRDNQFV
